{"sequences": {"note": "Amino acid sequences for entries named in this document (tags omitted). A change or cut given only in a name is not applied to a line headed by its entry.", "UniProt Q15388, whole entry, looked up": "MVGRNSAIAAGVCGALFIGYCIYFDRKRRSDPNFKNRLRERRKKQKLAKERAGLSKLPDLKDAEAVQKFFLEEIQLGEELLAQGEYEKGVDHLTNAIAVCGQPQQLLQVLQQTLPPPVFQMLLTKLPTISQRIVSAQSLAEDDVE", "UniProt Q96S44": "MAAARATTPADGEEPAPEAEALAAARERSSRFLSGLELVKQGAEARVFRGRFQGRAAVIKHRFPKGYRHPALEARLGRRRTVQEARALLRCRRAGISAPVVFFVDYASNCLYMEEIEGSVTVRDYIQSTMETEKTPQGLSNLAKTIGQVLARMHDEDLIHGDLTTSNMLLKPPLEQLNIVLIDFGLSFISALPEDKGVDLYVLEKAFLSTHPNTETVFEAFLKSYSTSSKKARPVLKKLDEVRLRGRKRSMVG", "UniProt Q5JTV8": "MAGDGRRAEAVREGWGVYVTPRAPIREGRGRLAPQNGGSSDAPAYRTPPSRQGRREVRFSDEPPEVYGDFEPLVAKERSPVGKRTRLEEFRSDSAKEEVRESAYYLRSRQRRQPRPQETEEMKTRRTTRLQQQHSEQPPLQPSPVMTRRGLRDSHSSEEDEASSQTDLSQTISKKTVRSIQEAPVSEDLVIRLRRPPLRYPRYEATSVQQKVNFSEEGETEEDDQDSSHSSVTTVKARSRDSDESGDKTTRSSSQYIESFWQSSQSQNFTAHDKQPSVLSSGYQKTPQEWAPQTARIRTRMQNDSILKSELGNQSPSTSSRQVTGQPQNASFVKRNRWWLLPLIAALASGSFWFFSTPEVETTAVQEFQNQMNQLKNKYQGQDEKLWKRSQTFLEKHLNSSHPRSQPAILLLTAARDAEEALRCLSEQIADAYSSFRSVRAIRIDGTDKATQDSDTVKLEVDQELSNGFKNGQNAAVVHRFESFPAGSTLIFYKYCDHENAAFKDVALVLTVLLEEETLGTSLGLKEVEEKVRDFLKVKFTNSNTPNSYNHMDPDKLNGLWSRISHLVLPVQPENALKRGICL", "UniProt Q9BTV4": "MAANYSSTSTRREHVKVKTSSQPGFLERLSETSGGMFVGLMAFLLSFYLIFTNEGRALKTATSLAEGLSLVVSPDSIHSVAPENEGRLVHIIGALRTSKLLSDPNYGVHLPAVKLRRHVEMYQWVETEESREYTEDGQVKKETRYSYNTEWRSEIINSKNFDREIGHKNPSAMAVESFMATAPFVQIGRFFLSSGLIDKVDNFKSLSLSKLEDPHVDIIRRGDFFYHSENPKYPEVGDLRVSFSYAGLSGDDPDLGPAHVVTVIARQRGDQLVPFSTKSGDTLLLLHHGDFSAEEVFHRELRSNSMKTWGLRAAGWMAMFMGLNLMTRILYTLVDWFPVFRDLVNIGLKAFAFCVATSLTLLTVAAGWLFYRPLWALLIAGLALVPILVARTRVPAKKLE", "UniProt Q8NDV7": "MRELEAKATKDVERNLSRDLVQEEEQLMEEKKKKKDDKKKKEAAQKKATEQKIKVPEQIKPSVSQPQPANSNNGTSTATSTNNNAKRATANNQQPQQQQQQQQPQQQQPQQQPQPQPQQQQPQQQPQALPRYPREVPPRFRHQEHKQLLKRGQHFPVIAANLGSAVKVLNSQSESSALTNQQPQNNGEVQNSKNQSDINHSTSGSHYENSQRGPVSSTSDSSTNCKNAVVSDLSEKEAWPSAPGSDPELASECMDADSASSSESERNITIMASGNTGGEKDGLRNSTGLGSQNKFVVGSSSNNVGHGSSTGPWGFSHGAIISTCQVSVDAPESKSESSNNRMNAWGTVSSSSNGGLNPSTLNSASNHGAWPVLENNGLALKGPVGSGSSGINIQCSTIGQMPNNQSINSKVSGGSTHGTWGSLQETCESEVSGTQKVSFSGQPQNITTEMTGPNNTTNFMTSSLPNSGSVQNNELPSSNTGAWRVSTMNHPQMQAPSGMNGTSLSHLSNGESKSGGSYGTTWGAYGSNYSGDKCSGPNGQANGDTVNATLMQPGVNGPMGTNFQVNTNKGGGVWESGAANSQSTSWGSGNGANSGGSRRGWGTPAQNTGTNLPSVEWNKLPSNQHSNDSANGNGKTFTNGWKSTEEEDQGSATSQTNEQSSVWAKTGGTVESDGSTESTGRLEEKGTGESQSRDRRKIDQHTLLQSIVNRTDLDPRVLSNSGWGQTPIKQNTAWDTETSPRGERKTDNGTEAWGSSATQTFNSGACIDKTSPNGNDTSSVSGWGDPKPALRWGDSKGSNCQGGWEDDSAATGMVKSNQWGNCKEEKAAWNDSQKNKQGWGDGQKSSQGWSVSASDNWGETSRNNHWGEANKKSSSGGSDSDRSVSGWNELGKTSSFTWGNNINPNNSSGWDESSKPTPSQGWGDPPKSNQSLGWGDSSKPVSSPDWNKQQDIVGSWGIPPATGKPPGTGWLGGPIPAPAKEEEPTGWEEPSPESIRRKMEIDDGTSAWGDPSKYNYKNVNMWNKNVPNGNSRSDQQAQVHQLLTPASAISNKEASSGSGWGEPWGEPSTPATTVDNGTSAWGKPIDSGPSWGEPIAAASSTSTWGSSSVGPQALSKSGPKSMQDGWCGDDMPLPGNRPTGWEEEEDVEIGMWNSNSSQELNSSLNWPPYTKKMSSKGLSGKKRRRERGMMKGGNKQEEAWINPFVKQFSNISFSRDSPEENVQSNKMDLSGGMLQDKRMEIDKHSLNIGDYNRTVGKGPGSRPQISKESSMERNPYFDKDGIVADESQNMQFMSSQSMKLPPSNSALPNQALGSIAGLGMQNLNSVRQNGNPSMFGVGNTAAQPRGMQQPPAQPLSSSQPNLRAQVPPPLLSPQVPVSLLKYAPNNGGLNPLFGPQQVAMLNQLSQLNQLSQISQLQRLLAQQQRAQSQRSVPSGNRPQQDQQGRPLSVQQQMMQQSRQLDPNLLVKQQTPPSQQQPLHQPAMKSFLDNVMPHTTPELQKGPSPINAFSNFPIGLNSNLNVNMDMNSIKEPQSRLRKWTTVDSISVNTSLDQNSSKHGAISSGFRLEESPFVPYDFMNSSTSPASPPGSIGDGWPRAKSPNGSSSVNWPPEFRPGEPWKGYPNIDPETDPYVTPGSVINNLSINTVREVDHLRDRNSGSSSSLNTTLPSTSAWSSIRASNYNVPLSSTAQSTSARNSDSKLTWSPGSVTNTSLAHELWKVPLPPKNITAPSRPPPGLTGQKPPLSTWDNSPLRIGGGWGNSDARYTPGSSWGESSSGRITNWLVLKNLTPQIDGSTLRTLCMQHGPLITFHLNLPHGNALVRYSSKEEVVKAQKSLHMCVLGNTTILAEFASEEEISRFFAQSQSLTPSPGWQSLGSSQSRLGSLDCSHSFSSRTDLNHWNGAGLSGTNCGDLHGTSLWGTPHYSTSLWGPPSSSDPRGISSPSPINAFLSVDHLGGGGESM", "UniProt Q9P0U1": "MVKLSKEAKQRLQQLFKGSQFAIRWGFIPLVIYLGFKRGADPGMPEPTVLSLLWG", "UniProt Q9H4I3": "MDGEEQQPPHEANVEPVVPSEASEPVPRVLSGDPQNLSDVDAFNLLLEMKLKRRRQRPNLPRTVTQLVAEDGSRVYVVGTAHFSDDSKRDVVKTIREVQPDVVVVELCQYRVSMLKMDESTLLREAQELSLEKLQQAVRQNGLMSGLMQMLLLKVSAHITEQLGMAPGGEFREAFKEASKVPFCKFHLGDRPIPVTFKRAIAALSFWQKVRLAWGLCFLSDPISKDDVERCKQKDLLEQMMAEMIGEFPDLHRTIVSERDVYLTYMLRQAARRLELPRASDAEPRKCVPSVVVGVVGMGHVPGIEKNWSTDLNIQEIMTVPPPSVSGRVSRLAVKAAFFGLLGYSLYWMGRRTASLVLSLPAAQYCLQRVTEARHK", "UniProt Q96K49": "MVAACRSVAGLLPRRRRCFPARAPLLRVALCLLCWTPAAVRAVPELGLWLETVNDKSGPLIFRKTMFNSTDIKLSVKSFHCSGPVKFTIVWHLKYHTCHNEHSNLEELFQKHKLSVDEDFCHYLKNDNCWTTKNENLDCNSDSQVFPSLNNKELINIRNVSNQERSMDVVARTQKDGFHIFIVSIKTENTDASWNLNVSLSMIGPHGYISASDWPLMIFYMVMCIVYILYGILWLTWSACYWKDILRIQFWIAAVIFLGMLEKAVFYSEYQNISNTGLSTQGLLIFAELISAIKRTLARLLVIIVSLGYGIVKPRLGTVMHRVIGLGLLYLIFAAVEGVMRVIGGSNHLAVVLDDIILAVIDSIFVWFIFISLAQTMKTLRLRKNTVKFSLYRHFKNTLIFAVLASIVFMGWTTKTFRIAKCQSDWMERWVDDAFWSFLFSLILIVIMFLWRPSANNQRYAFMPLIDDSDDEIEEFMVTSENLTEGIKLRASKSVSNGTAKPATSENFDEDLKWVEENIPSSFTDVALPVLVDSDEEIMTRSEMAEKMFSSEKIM", "UniProt Q9ULW0, whole entry, looked up": "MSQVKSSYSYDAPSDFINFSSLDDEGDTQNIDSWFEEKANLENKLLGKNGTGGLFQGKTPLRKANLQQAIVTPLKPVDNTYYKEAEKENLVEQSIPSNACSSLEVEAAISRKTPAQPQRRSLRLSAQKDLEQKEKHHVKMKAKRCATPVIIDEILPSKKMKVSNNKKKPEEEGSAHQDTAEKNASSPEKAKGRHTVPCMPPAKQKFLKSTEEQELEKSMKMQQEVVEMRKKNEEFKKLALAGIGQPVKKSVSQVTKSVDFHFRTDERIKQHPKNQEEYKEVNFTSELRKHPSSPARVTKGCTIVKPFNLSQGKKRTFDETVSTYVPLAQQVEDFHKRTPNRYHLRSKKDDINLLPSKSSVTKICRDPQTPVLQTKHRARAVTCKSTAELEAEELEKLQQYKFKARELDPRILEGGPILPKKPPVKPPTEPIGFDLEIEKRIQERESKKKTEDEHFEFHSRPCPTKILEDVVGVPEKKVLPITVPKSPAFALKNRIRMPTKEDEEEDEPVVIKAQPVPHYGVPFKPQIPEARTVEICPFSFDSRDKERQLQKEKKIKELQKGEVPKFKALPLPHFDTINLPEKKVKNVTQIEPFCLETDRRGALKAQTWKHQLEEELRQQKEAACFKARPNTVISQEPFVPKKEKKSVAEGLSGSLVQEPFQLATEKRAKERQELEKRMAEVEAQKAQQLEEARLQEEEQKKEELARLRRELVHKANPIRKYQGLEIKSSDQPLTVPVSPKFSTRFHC", "UniProt Q4ZIN3": "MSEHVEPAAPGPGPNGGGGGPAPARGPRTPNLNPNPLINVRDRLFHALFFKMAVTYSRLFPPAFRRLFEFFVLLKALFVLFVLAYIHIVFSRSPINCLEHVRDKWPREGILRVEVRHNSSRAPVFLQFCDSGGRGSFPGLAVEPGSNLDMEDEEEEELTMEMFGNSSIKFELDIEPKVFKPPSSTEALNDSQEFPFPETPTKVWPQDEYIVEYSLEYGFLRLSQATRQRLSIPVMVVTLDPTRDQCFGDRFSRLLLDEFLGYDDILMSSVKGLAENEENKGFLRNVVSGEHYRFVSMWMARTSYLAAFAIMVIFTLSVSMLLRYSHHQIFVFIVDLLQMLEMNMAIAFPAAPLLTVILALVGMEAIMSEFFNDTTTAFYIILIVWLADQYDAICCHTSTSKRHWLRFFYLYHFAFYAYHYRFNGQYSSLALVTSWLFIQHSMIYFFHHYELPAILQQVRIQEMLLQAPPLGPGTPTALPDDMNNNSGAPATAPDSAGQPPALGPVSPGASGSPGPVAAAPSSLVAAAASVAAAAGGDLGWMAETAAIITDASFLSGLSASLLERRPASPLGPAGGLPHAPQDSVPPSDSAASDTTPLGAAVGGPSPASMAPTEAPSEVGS", "UniProt Q8NCS4": "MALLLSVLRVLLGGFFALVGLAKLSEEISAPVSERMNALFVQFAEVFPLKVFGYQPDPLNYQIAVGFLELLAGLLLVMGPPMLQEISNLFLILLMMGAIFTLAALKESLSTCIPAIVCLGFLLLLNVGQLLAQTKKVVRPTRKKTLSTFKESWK", "UniProt Q71RG4": "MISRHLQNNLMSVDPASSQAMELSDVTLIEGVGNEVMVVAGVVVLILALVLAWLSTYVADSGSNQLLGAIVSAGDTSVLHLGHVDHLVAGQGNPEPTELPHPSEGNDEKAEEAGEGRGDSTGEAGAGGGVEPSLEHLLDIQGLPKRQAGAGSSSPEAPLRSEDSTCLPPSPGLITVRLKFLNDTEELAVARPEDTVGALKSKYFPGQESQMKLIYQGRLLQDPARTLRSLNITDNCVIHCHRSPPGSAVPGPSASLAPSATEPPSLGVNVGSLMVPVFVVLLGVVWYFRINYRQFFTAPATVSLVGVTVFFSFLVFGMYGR", "UniProt Q9P0T7": "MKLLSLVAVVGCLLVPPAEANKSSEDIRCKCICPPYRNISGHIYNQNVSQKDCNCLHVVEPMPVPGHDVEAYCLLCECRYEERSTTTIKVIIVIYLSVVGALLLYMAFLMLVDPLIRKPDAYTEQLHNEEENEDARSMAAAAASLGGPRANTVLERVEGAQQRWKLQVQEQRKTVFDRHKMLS", "UniProt Q9NQ34": "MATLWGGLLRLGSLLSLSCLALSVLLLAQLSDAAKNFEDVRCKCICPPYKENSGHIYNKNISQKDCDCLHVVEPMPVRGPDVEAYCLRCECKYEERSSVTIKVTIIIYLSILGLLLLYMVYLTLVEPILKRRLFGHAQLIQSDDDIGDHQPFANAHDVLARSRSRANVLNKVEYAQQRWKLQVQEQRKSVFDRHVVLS"}, "source": "the supplement of paper PMC10849652", "note": "Some of the results follow."}
{"compound": "NCC(=O)Nc1ccc(-n2nc(C(F)(F)F)cc2-c2ccc3c(ccc4ccccc43)c2)cc1", "assay": "log2 fold change, soluble protein after heating vs DMSO (PISA); higher = thermal stabilisation; K562 lysate, 10 uM; active = over 0.2 and 3.5 SD of the protein, either way, in both replicates (recomputed)", "outline": "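The values are log-two fold changes in thermal stability compared with solvent controls and come from duplicates. They were obtained by TMTpro 16plex LC-MS/MS, with channel sums equalised, on the supernatant after 21,000xg for 90 min. That supernatant came from crude K562 extract at 1 mg/mL protein treated with 10 μM compound for 30 min, heated for 3 min across 48°C-58°C, pooled and brought to 0.5% NP-40 at 4°C.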"}
{"target": "TPM4 isoform 2 (UniProt P67936)", "log2 fold change": "inactive: 0.02"}
{"target": "TMX3 (UniProt Q96JJ7)", "log2 fold change": "inactive: 0.025"}
{"target": "TOMM20 (UniProt Q15388)", "log2 fold change": "inactive: -0.057"}
{"target": "TPM1 (UniProt H7BYY1)", "log2 fold change": "inactive: 0.057"}
{"target": "TP53RK (UniProt Q96S44)", "log2 fold change": "inactive: -0.017"}
{"target": "TMEM205 (UniProt Q6UW68)", "log2 fold change": "inactive: -0.102"}
{"target": "TOR1AIP1 (UniProt Q5JTV8)", "log2 fold change": "inactive: -0.042"}
{"target": "TMEM68 (UniProt Q96MH6)", "log2 fold change": "inactive: -0.056"}
{"target": "TPCN1 isoform 3 (UniProt Q9ULQ1)", "log2 fold change": "inactive: 0.198"}
{"target": "TPM3 isoform 2 (UniProt P06753)", "log2 fold change": "inactive: -0.032"}
{"target": "TPRG1L (UniProt Q5T0D9)", "log2 fold change": "inactive: -0.158"}
{"target": "TMOD2 (UniProt Q9NZR1)", "log2 fold change": "inactive: 0.036"}
{"target": "TMEM43 (UniProt Q9BTV4)", "log2 fold change": "inactive: -0.006"}
{"target": "TNRC6A (UniProt Q8NDV7)", "log2 fold change": "inactive: 0.013"}
{"target": "TMEM38B (UniProt Q9NVV0)", "log2 fold change": "inactive: -0.011"}
{"target": "TOMM7 (UniProt Q9P0U1)", "log2 fold change": "inactive: 0.005"}
{"target": "TMEM41A (UniProt Q96HV5)", "log2 fold change": "inactive: 0.069"}
{"target": "TPST2 (UniProt O60704)", "log2 fold change": "inactive: 0.045"}
{"target": "TPD52L1 (UniProt Q16890)", "log2 fold change": "inactive: 0.014"}
{"target": "TRABD (UniProt Q9H4I3)", "log2 fold change": "inactive: -0.036"}
{"target": "TMEM87B (UniProt Q96K49)", "log2 fold change": "inactive: -0.024"}
{"target": "TPX2 (UniProt Q9ULW0)", "log2 fold change": "inactive: 0.003"}
{"target": "TNKS1BP1 (UniProt Q9C0C2)", "log2 fold change": "inactive: 0.031"}
{"target": "TMEM219 (UniProt Q86XT9)", "log2 fold change": "inactive: 0.052"}
{"target": "TMEM63B (UniProt Q5T3F8)", "log2 fold change": "inactive: 0.009"}
{"target": "TP53BP2 isoform 3 (UniProt Q13625)", "log2 fold change": "inactive: -0.029"}
{"target": "TNNI3K isoform 1 (UniProt Q59H18)", "log2 fold change": "inactive: 0.012"}
{"target": "TMEM259 (UniProt Q4ZIN3)", "log2 fold change": "inactive: -0.011"}
{"target": "TMEM35B (UniProt Q8NCS4)", "log2 fold change": "inactive: 0.067"}
{"target": "TMUB2 (UniProt Q71RG4)", "log2 fold change": "inactive: -0.054"}
{"target": "TMEM263 (UniProt Q8WUH6)", "log2 fold change": "inactive: 0.053"}
{"target": "TNIP1 (UniProt Q15025)", "log2 fold change": "inactive: -0.045"}
{"target": "TOLLIP (UniProt Q9H0E2)", "log2 fold change": "inactive: -0.015"}
{"target": "TMEM9 (UniProt Q9P0T7)", "log2 fold change": "inactive: 0.018"}
{"target": "TMX4 (UniProt Q9H1E5)", "log2 fold change": "inactive: 0.005"}
{"target": "TOE1 (UniProt Q96GM8)", "log2 fold change": "inactive: -0.003"}
{"target": "TMEM214 (UniProt Q6NUQ4)", "log2 fold change": "inactive: 0.045"}
{"target": "TMEM9B (UniProt Q9NQ34)", "log2 fold change": "inactive: 0.111"}
{"target": "TOMM34 (UniProt Q15785)", "log2 fold change": "inactive: 0.02"}
{"target": "TMEM70 (UniProt Q9BUB7)", "log2 fold change": "inactive: -0.081"}
